In publication PMC3633926:
Construct, isoform or probe ends are uncertain for at least one entry. At least one result comes from cells or an extract, where the contact may be indirect.

Protein sequences, listed by entry. Tags and fused reporters are not part of them. Lines headed by an entry give the natural chain unless they say otherwise; changes in a name come on top.
UniProt P43694: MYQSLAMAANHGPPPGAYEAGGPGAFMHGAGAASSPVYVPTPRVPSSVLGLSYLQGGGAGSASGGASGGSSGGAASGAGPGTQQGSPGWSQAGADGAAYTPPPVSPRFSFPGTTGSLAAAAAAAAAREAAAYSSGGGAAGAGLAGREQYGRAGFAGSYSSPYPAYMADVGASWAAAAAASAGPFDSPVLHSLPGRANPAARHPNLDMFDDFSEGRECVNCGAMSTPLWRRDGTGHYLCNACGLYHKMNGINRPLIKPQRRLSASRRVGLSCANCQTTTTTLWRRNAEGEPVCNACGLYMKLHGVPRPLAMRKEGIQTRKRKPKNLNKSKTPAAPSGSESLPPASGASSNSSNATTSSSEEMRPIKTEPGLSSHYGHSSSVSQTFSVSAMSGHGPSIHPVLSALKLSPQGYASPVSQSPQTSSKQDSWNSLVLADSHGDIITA

Key:
[1] = target: GATA4 wild type (Homo sapiens) (UniProt P43694); assay: EMSA; conditions: poly(dI-dC); LightShift kit 1x binding buffer, 1 ug poly(dI-dC), 2 ul nuclear extract, 1 pmol biotin probe, 20 ul, 20 min at room temperature; 6% native PAGE, 0.5x TBE; protein in a lysate after overexpression; residues 1-442; protein details: Myc; label: biotin (cold as competitor)
[2] = target: GATA4 wild type (Homo sapiens) (UniProt P43694); assay: competition with a labelled probe; conditions: 100-fold cold wild type oligonucleotide competes; LightShift kit 1x binding buffer, 1 ug poly(dI-dC), 2 ul nuclear extract, 1 pmol biotin probe, 20 ul, 20 min at room temperature; 6% native PAGE, 0.5x TBE; protein in a lysate after overexpression; residues 1-442; protein details: Myc; label: biotin (cold as competitor)

## GCAGTTAACTGATAATGACACTGTG (double strand) [dHAND GATA element]
[1]
  binding result: binds
[2]
  binding result: binds
